# Assay results reported in paper PMC11217421.
# By UniProt entry, the sequences of proteins in these tests, tags left out.
# UniProt Q9VWE6: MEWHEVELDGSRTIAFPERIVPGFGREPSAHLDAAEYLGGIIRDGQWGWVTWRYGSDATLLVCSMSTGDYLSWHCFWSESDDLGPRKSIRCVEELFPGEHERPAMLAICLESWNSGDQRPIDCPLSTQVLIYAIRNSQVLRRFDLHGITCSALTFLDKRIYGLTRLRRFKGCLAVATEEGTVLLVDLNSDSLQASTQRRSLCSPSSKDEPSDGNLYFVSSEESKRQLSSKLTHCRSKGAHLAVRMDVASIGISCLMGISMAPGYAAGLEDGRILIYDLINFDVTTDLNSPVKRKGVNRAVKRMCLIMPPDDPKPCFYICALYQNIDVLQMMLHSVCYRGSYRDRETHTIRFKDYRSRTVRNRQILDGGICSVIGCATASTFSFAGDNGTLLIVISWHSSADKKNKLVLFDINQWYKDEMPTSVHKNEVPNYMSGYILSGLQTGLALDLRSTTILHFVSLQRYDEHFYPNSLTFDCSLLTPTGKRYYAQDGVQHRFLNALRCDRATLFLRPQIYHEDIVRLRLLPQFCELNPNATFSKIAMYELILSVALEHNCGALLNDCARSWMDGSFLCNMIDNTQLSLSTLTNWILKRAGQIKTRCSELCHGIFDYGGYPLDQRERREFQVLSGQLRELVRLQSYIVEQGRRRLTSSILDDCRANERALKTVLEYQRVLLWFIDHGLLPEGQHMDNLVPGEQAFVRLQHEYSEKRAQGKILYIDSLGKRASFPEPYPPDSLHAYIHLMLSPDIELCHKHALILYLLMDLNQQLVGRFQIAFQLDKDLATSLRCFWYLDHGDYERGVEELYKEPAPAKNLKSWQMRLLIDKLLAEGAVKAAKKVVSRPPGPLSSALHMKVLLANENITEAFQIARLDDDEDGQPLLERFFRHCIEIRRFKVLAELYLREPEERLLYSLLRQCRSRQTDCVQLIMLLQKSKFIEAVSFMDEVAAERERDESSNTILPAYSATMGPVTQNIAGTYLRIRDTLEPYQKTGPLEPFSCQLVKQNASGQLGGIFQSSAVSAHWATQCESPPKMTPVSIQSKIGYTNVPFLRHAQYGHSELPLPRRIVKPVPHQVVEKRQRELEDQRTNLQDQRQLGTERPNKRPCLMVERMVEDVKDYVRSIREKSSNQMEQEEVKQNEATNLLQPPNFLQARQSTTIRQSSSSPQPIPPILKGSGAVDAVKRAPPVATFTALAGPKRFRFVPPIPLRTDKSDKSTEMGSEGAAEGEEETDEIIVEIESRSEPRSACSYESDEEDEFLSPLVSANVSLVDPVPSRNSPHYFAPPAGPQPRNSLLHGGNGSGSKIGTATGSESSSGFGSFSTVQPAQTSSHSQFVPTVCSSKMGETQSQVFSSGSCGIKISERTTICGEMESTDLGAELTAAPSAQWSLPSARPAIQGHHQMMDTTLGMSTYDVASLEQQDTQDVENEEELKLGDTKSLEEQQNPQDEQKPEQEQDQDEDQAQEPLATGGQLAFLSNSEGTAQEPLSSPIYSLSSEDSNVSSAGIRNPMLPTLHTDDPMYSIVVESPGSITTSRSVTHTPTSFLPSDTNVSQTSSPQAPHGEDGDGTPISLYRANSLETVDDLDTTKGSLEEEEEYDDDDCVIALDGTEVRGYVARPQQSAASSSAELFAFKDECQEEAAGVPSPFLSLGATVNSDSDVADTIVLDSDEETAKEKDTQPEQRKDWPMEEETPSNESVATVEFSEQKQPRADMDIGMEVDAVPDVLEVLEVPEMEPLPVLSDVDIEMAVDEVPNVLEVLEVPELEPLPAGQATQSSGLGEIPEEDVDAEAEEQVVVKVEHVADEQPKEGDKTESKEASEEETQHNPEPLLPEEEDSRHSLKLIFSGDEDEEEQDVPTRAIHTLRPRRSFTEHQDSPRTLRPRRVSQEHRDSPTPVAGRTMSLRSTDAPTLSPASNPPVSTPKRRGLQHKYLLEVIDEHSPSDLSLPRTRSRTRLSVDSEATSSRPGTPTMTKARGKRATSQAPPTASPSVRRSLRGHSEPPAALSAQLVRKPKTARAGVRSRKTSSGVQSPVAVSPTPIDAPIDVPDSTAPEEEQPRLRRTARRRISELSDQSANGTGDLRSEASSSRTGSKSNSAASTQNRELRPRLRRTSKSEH
# These are yes or no findings as the source states them, for the method shown. In cells and extracts the contact can be indirect. Some results given as binding are weak or reduced against the parent protein; the word gives no strength.
# How the values were obtained:
# [1] = target: T1, GAGA factor (GAF) (Drosophila melanogaster (endogenous in S2)) (UniProt Q08605); assay: co-IP; S2 cell lysate (50 mM Tris-HCl pH 7.5, 150 mM NaCl, 1 mM EDTA, 1% Triton X-100, 0.1% NP-40); anti-Nup107, anti-Elys or anti-GAF antibodies on Protein G Dynabeads, 90 min at 25 °C; Western blot; non-immune serum as control
# T1 sequence: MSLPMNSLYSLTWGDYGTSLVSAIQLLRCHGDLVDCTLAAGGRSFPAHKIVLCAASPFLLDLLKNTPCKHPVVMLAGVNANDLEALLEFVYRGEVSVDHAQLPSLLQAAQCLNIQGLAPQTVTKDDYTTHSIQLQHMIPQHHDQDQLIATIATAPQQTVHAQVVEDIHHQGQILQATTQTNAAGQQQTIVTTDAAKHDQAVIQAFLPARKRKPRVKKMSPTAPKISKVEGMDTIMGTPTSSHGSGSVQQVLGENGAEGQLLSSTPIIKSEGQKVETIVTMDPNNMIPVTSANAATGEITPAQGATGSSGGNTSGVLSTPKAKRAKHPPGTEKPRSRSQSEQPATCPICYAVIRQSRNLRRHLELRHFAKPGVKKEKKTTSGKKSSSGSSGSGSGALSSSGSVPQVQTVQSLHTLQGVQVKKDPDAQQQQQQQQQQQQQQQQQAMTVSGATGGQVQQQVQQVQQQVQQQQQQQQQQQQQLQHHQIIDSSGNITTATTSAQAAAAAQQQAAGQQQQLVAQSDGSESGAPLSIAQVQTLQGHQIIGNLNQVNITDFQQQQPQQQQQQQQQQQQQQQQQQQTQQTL
# [2] = target: T2, Nup107 (Drosophila melanogaster (endogenous in S2)) (UniProt Q9V466); assay: as above
# T2 sequence: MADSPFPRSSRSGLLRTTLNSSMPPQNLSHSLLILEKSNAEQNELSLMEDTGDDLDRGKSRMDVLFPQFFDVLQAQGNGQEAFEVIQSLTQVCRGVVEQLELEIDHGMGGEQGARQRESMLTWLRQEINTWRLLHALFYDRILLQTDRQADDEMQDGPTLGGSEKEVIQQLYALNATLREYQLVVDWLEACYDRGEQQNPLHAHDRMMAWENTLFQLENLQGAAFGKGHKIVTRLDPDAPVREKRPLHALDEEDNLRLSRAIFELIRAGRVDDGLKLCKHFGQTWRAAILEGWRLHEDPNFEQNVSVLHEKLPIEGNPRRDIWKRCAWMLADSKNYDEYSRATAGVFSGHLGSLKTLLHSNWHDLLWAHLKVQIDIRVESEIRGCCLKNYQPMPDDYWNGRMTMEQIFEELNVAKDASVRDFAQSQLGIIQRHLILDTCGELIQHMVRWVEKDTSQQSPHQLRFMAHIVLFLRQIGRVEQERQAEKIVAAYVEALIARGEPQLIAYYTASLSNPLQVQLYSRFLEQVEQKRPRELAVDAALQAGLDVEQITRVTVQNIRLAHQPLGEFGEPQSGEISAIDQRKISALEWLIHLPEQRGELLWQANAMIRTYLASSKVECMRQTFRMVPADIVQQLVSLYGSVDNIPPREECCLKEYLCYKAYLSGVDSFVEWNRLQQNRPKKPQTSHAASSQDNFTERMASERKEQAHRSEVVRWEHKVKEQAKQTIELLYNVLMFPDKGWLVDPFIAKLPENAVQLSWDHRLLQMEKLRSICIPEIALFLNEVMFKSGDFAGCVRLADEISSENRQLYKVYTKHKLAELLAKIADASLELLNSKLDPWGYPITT
substance,measurement,setting,value
Nucleoporin Elys (from UniProt Q9VWE6 1-2111),binding,[1],no binding
same,binding,[2],binds
